The results in this text go back to paper PMC12040169 (PLOS Biology, 2025).

This is one part of the list.

The assay relates to T1, CTL2-GFP (C. trachomatis L2/434/Bu, GFP-expressing).
T1 construct: L2/434/Bu, GFP-expressing
The arrangement: species or system HeLa; Intracellular C. trachomatis growth in HeLa cells, bulk GFP fluorescence relative to DMSO. Particulars: bulk GFP, single well; 28.5 h, 10 µM; inhibitor.
Regarding `CC1(CNC(=O)c2cn3cc(Cl)ccc3n2)COC1` [CBK281748], the “% of control remaining” value is recorded as 124.87%. Regarding `CC(C)CN1CCCN(S(=O)(=O)c2ccc(C(F)(F)F)cc2Cl)CC1` [CBK062943], the “% of control remaining” value is reported as 105.833%. For `CC(C)(C)OC(=O)N1CCC[C@@H](C(=O)c2cccs2)C1` [CBK284310], the “% of control remaining” value was found to be 130.083%.

Turning to `O=C(O)CCCNS(=O)(=O)/C=C/c1ccccc1` [CBK287170], the “% of control remaining” value is 131.295%. As for `COc1ccccc1C(=O)Nc1ccc([C@@H](O)[C@H]2COCC(=O)N2)cc1` [CBK289688], the “% of control remaining” value amounted to 159.703%. Take `c1csc(COc2nccnc2-c2cc3ccccc3s2)c1` [CBK106786]: the “% of control remaining” value came out at 100.855%. For `CN(C)c1ccccc1-c1cc(N2CCN(S(=O)(=O)c3ccc(Cl)cc3)CC2)ncn1` [CBK037039], the “% of control remaining” value came to 129.653%.

For `CCc1nc2ccc(C(=O)N3CCN(C(=O)c4ccco4)CC3)cn2c1N(C)Cc1ccncc1` [CBK145635], the “% of control remaining” value stood at 112.887%.

`Oc1ccc2nc(N[C@H]3CC4CCC3C4)sc2c1Cl` (stereo partly drawn) [CBK024348G]: the “% of control remaining” value worked out at 112.654%. Turning to `Nc1nc(-c2ccc3c(c2)CCC(=O)N3)cs1` [CBK086133], the “% of control remaining” value is 167.141%. On to `Cc1nn(C)c(C(=O)Nc2sc3c(c2C#N)CCC(C)C3)c1Br` (stereo not drawn) [CBK304212], for which the “% of control remaining” value was 136.976%.

As to `Cc1cc(OC(C)C(=O)Nc2ccccc2C(=O)N2CCCCC2)ccc1Cl` (stereo not drawn) [CBK269696], the “% of control remaining” value was 92.3088%.

For the compound `COc1cc([C@@]23CC[C@@H](NC(=O)Nc4cccc(Cl)c4)C[C@@H]2N(C)CC3)cc(OC)c1OC` [CBK039212], the “% of control remaining” value is reported as 107.282%. With `CC(NCCCN(C)C)=C1C(=O)c2ccccc2C1=O` [CBK262674], the “% of control remaining” value amounted to 122.954%. The figure for `N#CCCN(C(=O)NCc1cccnc1)C1CCCCC1` [CBK156355] is 205.283%; for `CCOC(=O)c1[nH]c2ccccc2c1NS(=O)(=O)c1ccc(Br)cc1` [CBK047409] it is 55.9226%. Consider `CCOc1cccc(/C=N\NC(=O)C2COc3cc4ccccc4cc3O2)c1O` (stereo not drawn) [CBK262846], for which the “% of control remaining” value is reported as 66.7273%.

Take `Cc1nn(C)c(Sc2ccccc2)c1[N+](=O)[O-]` [CBK002937]: the “% of control remaining” value is 106.124%. Turning to `O=C(NCC(CO)Cc1ccsc1)N1CCN(c2ccncc2)CC1` (stereo not drawn) [CBK306929], the “% of control remaining” value is listed as 94.4195%. The figure for `CCN(CC)C(=O)CNS(=O)(=O)Cc1ccccc1[N+](=O)[O-]` [CBK034504] is 95.4422%. `Cc1nn(Cc2ccccn2)c(=O)n2cccc12` [CBK283849]: the “% of control remaining” value is reported as 119.904%. For `CC(=O)Nc1nc(OCC(F)(F)F)cnc1-c1ccc2c(c1)OCO2` [CBK145427], the “% of control remaining” value amounted to 102.966%. Consider `COc1ccc(S(=O)(=O)NCCN2CCOCC2)cc1Br` [CBK269838], for which the “% of control remaining” value is recorded as 109.567%.

`CC(C)CC(NC(=O)c1cccnc1)c1nnc2n1CCNCC2` (stereo not drawn) [CBK307149]: the “% of control remaining” value came out at 127.225%. Turning to `O=C1NN=C(CSCCO)Oc2ccccc21` [CBK006771], the “% of control remaining” value is 110.75%. In the case of `COCc1cccc(Nc2ncnc3c2cnn3CCO)c1` [CBK306214], the “% of control remaining” value is listed as 128.927%. With `C(=C\c1nccnc1OCc1cccs1)/c1ccccc1` [CBK106883], the “% of control remaining” value is given as 109.281%. The figure for `CC(=O)c1ccc(S(=O)(=O)N2CCCCC2C)cc1` (stereo not drawn) [CBK069211] is 127.586%. The figure for `CC1CCc2c(sc3ncnc(SC(C)C(=O)OC4CCCCC4)c23)C1` (stereo not drawn) [CBK265050] is 100%; for `CCOc1ccc(CN(C)C(=O)Cn2nc(C(=O)O)c3ccccc3c2=O)cc1` [CBK297492] it is 130.28%; for `COC(=O)c1ccc2c(c1)[n+](CCO)c(C)n2CCO` [CBK262443C] it is 120.727%. With `CC1CCc2nc3ccccc3c(C(=O)N(C)Cc3cnn(C)c3)c2C1` (stereo not drawn) [CBK305749], the “% of control remaining” value turned out to be 138.298%.

On to `CC(C)NC(=O)Cn1cnc2c1c(=O)n(C)c(=O)n2C` [CBK133257], for which the “% of control remaining” value is 110.377%.

Take `COc1ccc(Oc2nccnc2N2CCN(Cc3ccc([N+](=O)[O-])cc3)CC2)cc1OC` [CBK083046T]: the “% of control remaining” value is 75.4216%. As to `CCN(CC)S(=O)(=O)c1ccc(C)c(NS(=O)(=O)c2cc(C(=O)O)n(C)c2)c1` [CBK297782], the “% of control remaining” value is on record as 149.283%. Regarding `Clc1cc2nc(OCCCc3ccncc3)c(N3CCCC3)nc2cc1Cl` [CBK115774], the “% of control remaining” value amounted to 104.345%. As for `COc1ccc(C(=O)N2CCC3(CCCN(C(=O)c4cccnc4)C3)C2)cc1OC` (stereo not drawn) [CBK131668], the “% of control remaining” value turned out to be 116.762%. On to `CCN(CC)CCCNC(=O)N1CCCC(C(=O)N(CC)CC)C1` (stereo not drawn) [CBK156149], for which the “% of control remaining” value was 101.758%. Regarding `Cc1cc(OCC(=O)N2CCNC(=O)C2)c2c(C)c(C)c(=O)oc2c1` [CBK307624], the “% of control remaining” value is recorded as 111.335%. For `Cc1csc(C(Cc2ccsc2)NC(=O)C2CCOC2)n1` (stereo not drawn) [CBK285150], the “% of control remaining” value was 117.836%.

`COc1cccc2sc(NC(=O)CN3CCOCC3)nc12` [CBK149281]: the “% of control remaining” value came to 112.905%. To `O=C(C1C2CCCCC21)N1CCC(c2nnc3n2CCCCC3)CC1` (stereo not drawn) [CBK283351] belongs 133.686%; to `O=C(CN1CCN(Cc2ccccc2)CC1)Nc1cccc(Cl)c1` [CBK267850], 102.919%.

With `Cc1nn(CC(=O)N2CCCCCC2)c(=O)c2cc3sccc3n12` [CBK284084], the “% of control remaining” value is 124.448%. The figure for `CN(CCCC(=O)Nc1nnc[nH]1)S(=O)(=O)c1ccccc1` [CBK267380] is 135.4%. On to `COc1ccc([C@@]23CC[C@@H](NC(=O)Nc4cccc(C#N)c4)C[C@@H]2N(C)CC3)cc1OC` [CBK036448T], for which the “% of control remaining” value was found to be 111.437%. To `Cc1noc2c1[C@H]1[C@H](O)[C@H](O)C[C@H]1C1(CCC1)N2` [CBK303266] belongs 98.2656%; to `NCc1ccc(CN(Cc2cnc(-c3ccccc3)[nH]2)C(=O)Nc2ccc3c(c2)OCO3)cc1` [CBK046158C], 122.959%. As for `O=C(NCc1cccc(C(F)(F)F)c1)N1CCN(CCN2CCOCC2)CC1` [CBK155671], the “% of control remaining” value was 112.41%. For the compound `Cc1cccc(C(=O)NNC(=O)COc2cccc3ccccc23)c1O` [CBK262993], the “% of control remaining” value is 122.09%. The figure for `c1ccc(C(NCc2cnc(-c3ncccn3)s2)C2CCC2)cc1` (stereo not drawn) [CBK304013] is 135.202%.
